From article PMC7159925

Protein sequences, listed by entry. Tags and fused reporters are not part of them.
UniProt Q10658: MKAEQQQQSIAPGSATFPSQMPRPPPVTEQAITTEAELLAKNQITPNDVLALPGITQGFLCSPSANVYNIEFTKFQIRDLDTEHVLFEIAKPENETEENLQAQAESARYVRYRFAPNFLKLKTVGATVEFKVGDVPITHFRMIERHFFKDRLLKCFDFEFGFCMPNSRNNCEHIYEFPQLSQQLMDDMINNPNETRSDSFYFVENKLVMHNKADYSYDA

Target: UNC-119::GFP (unc-119::gfp knock-in) (C. elegans (endogenous in C. elegans)) (UniProt Q10658)
Assay: affinity purification with mass spectrometry; GFP-trap magnetic beads with lysate of unc-119::gfp knock-in C. elegans, 2 hr at 4°C; lysis buffer 25 mM Tris pH 7.5, 150 mM NaCl, 1% Triton; controls wild type (N2) and a strain expressing GFP in neurons (OH441)

binding: binds
B1: UNC-33 (CRMP) (protein, UniProt Q01630 1-854)
chain: MFPFLAPIRSANHVEQQGTKYYVEITFLADSPYSRAPSSTGTEKSVIPTLRNLDDLETVSNKSRSSEGVNKLGSRPNSRSSAIVKKTSVSSLPTSARSEGKSSPIPVKDAIPAPARHKNKGLEMSSAMMELFGGGGSTSPAPSKRENPADAPSDRVVSNAKLSQPGPEWFEGFEQMDMTDIELPPDPNCPAEKVLRGEKSTPDFDSDWQEAKEDVLDPQSYPKSFNPAESLPGPDIGAGVDDEEEPEAEAQEMEEPQYESKVDEKDDDDNGSSSSKKGHPSEDGDSTRNGETPTDRRNSGAIEETADGESSAQSAAEKKNSGDDGNGGGGEMSILLVKNAQIVNDDAIFVADILIEDGIIQNVAPNLEAPEGAEVLDAAGKLALPAGIDVYTQVTDSSVDDLSTGCKSAIAGGTGTIVEVVRPRGAESVVSAVKRVKNQLEKSGISCHVALSVAITDFCEQEMSELVKNEGINSFVLDGVSLTDDKLLELFEHVKRLGALIRVVPENKSIVAMLEKKMLKLGVTGPEGFPQSRPESLEADRVSGVCVLGNLASCPISIVQVSSADSLAAIEKARASGALAHAEIASAAVTADGSALFSQDLRFASAHLTDVPLRRGAPDRMIGALSTQPLVVCTSGHRPVNSATRVAAKDFAIAQKGSTGAEERMAVVWERAVRSGRIDAMRFVAVTSTNAAKMFNMYPKKGRIAVGADADLVIWDASGKRVLESSRAQSSQENSMYDGLTVHSVVTATIVGGKIAYQNGEVREAPVAGGFLRLSPNSPYLFSMVGQRDKFANVERVEREASSQQQKPQQNGHHKNSGDFDRNRTKVMESSIDFGGSAANRPRNPPGGRTTGFW

Results are given in words; binding and its absence hold for the method and conditions named. Binding seen in cells or lysates may run through a third protein. Here binding means that the protein was enriched with, or labelled near, the bait; the list need not be complete.
